Data reported in article PMC3348923.
These are yes or no findings as the source states them, for the method shown. Binding seen in cells or lysates may run through a third protein. Binding calls can cover weak binding; strength is not graded here.

By UniProt entry, the sequences of proteins in these tests, tags left out. Where a name states a change or a piece, a line headed by the entry shows the natural chain unless it says otherwise.
UniProt Q86TM6: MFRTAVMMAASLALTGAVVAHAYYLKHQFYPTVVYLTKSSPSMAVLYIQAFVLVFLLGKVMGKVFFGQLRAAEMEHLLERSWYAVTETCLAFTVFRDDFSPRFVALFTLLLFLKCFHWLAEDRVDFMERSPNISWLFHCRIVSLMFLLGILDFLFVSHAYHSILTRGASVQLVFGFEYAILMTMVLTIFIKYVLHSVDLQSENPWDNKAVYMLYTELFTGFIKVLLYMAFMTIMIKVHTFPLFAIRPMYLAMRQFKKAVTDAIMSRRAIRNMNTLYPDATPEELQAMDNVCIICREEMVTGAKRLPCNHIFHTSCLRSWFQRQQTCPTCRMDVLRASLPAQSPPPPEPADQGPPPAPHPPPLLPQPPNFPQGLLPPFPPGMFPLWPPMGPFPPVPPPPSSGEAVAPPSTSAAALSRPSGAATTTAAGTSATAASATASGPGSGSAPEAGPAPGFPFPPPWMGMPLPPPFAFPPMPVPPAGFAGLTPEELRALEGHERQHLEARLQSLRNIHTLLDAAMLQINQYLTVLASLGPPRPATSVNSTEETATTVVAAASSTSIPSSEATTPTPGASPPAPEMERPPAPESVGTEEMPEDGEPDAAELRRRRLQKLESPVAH
UniProt Q9UHP3: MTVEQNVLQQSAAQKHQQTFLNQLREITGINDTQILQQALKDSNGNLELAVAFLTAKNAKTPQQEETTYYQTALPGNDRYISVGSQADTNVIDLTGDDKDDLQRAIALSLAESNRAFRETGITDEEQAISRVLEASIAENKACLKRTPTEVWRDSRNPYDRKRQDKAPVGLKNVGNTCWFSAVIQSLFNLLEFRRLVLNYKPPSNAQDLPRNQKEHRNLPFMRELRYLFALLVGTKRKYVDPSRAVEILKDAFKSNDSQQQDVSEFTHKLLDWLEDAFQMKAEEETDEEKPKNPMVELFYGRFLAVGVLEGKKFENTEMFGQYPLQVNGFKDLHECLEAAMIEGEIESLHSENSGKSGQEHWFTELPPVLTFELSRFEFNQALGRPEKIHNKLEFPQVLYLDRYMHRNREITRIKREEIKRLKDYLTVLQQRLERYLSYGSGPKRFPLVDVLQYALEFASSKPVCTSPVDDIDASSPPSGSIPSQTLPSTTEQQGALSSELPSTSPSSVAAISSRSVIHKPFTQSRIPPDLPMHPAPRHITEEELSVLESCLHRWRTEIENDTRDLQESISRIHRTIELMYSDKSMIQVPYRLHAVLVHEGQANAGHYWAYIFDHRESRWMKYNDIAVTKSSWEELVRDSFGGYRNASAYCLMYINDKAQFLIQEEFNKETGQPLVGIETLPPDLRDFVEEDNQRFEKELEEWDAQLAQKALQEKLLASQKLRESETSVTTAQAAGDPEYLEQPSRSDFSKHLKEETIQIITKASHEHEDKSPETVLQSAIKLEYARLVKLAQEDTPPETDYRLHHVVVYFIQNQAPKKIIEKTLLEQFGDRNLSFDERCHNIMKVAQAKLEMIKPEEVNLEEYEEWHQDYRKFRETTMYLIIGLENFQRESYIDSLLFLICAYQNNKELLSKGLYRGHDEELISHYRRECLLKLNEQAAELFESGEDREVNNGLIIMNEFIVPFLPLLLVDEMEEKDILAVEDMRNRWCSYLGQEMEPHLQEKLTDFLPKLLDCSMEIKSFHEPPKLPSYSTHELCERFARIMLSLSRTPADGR

Biological target: V5-HRD1 (UniProt Q86TM6)
Test: co-IP; HEK-293 cells transfected, harvested 48 h later; lysed in NETN buffer (50 mM TRIS pH 7.5, 150 mM NaCl, 0.5% NP40) with protease inhibitors; tagged protein precipitated with bead-bound anti-tag antibodies, washed 3X, eluted with 2% SDS; western blot

| binding | Substance |
| --- | --- |
| binds | USP25 ΔUIM (from UniProt Q9UHP3) (enzyme) |
| binds | USP25 ΔUBA (from UniProt Q9UHP3) (enzyme) |
